From the supplement of paper PMC10849652
Some of the results follow.

Amino acid sequences for entries named in this document (tags omitted). A change or cut given only in a name is not applied to a line headed by its entry.
UniProt Q96RQ1: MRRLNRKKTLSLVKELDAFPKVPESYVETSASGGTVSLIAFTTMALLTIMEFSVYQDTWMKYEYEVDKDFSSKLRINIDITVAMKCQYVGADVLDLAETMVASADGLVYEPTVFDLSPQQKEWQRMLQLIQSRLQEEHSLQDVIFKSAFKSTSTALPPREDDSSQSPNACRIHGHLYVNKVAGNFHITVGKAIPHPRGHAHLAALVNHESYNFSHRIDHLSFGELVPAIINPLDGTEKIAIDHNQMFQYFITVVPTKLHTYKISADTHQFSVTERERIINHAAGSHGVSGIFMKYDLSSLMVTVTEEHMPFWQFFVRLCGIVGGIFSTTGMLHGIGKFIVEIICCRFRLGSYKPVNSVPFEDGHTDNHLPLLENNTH
UniProt P41091, whole entry, looked up: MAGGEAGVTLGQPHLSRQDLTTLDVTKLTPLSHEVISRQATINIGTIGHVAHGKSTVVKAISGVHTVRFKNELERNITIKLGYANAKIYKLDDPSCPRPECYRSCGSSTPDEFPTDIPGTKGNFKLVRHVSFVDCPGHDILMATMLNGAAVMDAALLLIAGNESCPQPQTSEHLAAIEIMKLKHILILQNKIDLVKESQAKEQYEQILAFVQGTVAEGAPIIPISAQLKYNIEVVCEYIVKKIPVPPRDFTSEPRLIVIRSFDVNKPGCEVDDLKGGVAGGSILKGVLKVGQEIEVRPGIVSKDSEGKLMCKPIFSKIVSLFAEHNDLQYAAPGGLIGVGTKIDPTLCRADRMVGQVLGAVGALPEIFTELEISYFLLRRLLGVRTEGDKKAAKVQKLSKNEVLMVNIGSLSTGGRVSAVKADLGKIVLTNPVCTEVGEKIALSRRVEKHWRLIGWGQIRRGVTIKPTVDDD
UniProt Q15723: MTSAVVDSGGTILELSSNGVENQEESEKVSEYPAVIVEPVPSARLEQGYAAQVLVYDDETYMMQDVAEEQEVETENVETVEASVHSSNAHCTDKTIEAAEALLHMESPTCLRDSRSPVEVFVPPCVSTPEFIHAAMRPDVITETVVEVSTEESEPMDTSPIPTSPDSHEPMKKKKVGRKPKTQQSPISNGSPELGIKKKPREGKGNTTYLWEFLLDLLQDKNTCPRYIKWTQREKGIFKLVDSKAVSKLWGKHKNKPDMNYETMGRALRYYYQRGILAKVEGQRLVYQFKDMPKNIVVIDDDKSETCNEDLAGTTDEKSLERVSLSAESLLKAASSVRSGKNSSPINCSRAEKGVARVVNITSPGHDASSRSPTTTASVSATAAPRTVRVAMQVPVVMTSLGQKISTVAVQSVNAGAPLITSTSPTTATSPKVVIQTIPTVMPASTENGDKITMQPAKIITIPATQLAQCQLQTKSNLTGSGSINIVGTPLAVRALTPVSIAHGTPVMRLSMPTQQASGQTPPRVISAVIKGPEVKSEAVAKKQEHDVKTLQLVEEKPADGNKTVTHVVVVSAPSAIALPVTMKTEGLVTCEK
UniProt P58107: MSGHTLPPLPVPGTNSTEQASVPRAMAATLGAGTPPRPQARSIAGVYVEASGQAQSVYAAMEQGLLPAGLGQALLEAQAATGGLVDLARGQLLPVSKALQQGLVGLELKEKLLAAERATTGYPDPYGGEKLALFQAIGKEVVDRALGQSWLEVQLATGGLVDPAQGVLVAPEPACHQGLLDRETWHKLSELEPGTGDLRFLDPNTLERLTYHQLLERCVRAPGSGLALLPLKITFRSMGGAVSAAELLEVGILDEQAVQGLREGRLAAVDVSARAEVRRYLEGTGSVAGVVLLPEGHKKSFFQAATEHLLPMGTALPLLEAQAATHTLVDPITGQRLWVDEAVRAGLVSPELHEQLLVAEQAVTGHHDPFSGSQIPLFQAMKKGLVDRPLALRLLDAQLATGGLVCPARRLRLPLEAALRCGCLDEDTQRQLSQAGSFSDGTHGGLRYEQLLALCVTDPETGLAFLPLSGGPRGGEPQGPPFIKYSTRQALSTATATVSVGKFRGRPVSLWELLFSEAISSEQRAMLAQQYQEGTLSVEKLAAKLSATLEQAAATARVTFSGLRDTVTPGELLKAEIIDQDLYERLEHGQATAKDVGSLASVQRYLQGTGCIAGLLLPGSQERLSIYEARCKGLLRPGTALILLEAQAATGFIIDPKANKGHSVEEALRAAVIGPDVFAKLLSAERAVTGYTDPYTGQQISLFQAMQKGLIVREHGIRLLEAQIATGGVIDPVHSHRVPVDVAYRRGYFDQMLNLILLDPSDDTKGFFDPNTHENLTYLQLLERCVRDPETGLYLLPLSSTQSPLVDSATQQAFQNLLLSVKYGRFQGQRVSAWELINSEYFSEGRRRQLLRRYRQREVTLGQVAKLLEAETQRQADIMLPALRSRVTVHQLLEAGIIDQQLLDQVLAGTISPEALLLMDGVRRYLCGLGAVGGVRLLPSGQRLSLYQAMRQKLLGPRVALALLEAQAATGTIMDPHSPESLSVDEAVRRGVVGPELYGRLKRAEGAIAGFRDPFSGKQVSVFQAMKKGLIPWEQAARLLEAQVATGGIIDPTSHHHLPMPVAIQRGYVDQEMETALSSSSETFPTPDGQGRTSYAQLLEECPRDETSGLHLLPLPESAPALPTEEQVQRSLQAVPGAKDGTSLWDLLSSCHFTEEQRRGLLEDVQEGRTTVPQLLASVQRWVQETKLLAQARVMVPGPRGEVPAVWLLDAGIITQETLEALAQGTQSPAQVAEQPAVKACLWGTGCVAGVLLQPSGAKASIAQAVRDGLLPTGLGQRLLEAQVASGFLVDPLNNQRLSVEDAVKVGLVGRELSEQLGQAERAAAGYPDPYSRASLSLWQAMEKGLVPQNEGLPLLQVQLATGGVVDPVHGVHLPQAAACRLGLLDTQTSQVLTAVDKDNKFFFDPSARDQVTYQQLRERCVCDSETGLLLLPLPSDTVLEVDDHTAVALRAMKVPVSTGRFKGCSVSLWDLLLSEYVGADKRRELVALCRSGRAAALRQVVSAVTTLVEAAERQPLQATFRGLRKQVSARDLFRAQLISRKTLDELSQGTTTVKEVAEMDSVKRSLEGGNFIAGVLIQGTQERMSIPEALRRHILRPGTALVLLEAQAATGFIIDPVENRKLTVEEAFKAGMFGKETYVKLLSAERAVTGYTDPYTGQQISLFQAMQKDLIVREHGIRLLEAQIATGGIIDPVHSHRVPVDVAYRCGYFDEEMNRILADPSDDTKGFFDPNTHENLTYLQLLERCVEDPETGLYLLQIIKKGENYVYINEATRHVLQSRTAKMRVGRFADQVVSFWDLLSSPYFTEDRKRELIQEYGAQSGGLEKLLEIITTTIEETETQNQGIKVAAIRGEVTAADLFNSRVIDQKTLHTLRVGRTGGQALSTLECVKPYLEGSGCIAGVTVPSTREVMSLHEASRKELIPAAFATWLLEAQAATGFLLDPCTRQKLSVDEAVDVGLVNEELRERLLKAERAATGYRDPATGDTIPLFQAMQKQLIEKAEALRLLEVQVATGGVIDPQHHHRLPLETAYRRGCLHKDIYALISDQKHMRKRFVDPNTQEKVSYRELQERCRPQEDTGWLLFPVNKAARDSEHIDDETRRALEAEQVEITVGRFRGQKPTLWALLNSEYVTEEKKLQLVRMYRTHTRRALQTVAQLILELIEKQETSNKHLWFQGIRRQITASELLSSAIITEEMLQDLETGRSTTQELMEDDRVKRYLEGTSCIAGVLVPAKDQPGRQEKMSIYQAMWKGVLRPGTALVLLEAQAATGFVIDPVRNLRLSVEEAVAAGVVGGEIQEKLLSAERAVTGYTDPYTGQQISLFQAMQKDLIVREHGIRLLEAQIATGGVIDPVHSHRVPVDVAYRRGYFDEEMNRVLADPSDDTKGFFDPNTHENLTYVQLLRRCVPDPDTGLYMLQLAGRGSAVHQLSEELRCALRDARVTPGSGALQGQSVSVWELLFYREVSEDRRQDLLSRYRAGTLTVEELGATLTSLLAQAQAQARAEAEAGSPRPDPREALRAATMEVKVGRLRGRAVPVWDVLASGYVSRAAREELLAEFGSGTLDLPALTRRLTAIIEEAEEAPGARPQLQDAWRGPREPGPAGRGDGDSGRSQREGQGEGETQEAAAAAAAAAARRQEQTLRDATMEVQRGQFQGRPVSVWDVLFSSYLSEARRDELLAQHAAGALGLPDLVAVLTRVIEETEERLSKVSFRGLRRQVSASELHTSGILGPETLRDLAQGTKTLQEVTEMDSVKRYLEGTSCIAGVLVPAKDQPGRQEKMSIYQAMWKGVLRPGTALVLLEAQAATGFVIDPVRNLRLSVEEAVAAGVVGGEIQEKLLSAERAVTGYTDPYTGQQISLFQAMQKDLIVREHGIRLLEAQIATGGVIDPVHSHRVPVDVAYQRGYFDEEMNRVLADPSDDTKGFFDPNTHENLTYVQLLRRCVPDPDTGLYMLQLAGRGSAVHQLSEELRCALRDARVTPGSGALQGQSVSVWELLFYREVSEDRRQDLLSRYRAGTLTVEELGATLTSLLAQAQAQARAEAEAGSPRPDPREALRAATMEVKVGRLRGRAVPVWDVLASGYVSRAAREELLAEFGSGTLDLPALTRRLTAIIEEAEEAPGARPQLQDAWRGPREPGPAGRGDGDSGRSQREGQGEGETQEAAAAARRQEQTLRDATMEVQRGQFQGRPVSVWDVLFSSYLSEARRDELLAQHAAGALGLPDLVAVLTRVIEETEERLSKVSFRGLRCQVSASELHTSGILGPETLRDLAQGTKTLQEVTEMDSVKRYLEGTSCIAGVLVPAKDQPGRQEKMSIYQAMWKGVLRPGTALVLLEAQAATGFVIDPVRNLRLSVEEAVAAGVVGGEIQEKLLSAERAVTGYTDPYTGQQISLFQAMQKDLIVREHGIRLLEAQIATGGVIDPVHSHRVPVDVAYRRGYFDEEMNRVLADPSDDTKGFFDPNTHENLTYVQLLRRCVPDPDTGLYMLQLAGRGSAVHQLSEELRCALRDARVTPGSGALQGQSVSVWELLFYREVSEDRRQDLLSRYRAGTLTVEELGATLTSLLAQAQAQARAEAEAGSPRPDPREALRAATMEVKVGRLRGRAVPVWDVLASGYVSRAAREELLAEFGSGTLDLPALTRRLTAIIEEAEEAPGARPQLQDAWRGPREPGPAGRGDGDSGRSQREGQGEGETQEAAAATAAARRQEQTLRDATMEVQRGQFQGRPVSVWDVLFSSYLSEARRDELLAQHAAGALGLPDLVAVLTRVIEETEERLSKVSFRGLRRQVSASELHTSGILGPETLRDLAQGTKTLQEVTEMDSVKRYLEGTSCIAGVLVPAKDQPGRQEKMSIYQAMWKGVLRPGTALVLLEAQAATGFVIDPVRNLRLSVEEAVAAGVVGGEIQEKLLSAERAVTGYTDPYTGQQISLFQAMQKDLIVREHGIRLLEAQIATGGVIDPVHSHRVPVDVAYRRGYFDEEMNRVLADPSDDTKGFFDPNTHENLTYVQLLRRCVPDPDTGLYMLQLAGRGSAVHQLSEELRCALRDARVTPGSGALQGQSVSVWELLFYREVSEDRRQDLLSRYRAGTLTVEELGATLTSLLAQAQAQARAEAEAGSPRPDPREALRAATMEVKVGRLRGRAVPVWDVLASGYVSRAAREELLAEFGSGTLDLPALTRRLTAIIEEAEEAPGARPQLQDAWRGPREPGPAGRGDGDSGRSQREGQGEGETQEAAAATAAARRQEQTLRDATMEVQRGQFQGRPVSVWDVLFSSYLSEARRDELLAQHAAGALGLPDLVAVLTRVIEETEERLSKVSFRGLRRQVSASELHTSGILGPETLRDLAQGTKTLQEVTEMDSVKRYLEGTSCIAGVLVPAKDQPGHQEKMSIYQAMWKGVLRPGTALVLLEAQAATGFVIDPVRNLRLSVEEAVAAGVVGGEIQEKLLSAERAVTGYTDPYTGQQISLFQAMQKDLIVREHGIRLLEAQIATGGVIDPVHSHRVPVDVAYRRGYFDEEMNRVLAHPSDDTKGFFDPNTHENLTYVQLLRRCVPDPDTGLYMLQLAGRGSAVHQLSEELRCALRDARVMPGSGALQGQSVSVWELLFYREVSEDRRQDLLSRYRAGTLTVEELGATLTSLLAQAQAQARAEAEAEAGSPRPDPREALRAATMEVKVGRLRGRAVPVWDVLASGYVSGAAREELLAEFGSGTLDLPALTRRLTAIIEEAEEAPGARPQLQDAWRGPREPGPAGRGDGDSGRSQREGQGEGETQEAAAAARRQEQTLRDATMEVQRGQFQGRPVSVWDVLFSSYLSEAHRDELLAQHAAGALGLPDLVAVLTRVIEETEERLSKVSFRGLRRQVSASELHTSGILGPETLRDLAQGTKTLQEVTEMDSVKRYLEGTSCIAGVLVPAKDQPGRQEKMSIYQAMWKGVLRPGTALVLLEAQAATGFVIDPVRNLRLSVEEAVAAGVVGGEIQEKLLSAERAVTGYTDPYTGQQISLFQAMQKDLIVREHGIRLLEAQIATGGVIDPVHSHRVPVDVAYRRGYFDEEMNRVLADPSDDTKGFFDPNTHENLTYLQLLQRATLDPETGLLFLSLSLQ

Compound: COC(=O)[C@H](CCSC)NC(=O)C1=C(C=C(C=C1)NC[C@H](CS)N)C2=CC=CC=C2
Assay: log2 fold change, soluble protein after heating vs DMSO (PISA); higher = thermal stabilisation; K562 lysate, 10 uM; active = over 0.2 and 3.5 SD of the protein, either way, in both replicates (recomputed)
Outline: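 To prepare the extract, K562 pellets were dounce-homogenised in PBS pH 7.4 with 1 mM MgCl2, giving crude material at 1 mg/mL protein. This was treated with 10 μM compound for 30 min, then heated in aliquots for 3 min over 48°C-58°C before pooling and addition of NP-40 to 0.5% at 4°C. Centrifugation at 21,000xg for 90 min left soluble protein in the supernatant, which TMTpro 16plex LC-MS/MS quantified with equalised channel sums. Results are log-two fold changes in thermal stability compared with solvent controls, from duplicates.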

log2 fold change, inactive:
EIF3G (UniProt K7ER90) -0.061, EP300 (UniProt Q09472) 0.105, ERGIC2 (UniProt Q96RQ1) -0.117, ERAL1 (UniProt O75616) 0.058, EIF3F (UniProt O00303) 0.135, EMC3 (UniProt Q9P0I2) -0.016, ELMO1 (UniProt Q92556) -0.034, ERC1 (UniProt X6RLX0) -0.004, EIF3B isoform 2 (UniProt P55884) 0.054, ERI1 (UniProt Q8IV48) 0.118, ENY2 (UniProt Q9NPA8) -0.003, EMC7 (UniProt Q9NPA0) -0.058, EMC6 (UniProt Q9BV81) -0.029, EIF2D (UniProt P41214) 0.164, EIF2S3 (UniProt P41091) -0.013, ELF2 (UniProt Q15723) 0.038, ERH (UniProt P84090) -0.056, EPHX2 (UniProt P34913) -0.058, EPS15L1 isoform 2 (UniProt Q9UBC2) -0.023, ERCC4 (UniProt Q92889) -0.001, ERCC3 (UniProt P19447) 0.033, EPPK1 (UniProt P58107) 0.144, EIF6 (UniProt P56537) 0.005
